Measurements from PMC4894971.
Results are given in words; binding and its absence hold for the method and conditions named. In cells and extracts the contact can be indirect. Some entries that bind do so weakly or less than the wild type.

The chains behind the UniProt entries cited, without tags or fusion partners. Where a name states a change or a piece, a line headed by the entry shows the natural chain unless it says otherwise. A line that says so, or that is headed by a name, gives the form on record, which may keep a tag or linker.
UniProt Q3TKT4: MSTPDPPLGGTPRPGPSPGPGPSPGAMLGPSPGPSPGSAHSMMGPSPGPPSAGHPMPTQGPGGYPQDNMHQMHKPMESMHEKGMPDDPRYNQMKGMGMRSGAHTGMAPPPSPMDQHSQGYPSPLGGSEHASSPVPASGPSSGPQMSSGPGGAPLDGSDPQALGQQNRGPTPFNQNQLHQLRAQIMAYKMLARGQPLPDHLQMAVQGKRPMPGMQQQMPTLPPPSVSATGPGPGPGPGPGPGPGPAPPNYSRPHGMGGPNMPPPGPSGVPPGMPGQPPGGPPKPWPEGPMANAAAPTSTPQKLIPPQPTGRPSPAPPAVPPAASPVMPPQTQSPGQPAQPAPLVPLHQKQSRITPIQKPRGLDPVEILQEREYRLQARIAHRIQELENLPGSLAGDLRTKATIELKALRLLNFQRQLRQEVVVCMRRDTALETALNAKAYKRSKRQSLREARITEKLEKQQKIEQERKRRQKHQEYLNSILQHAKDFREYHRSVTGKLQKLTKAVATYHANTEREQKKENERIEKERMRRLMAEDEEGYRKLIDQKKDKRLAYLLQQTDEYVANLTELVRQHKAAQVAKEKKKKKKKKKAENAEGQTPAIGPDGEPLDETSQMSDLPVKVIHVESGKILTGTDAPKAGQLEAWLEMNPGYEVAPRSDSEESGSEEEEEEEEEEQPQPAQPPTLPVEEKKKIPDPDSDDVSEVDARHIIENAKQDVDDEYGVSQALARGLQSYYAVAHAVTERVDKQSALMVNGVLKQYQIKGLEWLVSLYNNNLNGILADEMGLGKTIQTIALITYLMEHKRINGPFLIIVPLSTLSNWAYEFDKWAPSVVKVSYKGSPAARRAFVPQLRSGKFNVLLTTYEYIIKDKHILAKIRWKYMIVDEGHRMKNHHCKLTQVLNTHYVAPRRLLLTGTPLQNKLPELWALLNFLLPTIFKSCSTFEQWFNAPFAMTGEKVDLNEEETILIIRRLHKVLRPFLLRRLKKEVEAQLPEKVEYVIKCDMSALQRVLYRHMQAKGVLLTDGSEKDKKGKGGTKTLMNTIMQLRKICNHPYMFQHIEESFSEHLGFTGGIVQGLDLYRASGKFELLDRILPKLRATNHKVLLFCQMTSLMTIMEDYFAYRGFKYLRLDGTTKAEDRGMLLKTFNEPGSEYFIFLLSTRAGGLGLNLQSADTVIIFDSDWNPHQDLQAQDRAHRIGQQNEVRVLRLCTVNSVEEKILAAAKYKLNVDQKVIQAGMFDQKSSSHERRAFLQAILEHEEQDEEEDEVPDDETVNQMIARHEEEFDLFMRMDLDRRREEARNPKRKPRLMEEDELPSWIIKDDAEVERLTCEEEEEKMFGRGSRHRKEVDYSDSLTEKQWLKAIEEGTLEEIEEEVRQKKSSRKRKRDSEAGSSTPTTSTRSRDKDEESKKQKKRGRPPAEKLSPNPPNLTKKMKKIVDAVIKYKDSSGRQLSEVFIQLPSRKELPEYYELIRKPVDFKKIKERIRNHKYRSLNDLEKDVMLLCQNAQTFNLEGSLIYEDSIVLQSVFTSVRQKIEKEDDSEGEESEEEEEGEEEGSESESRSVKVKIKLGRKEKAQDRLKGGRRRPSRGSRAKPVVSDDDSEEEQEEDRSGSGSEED
UniProt Q99MR0: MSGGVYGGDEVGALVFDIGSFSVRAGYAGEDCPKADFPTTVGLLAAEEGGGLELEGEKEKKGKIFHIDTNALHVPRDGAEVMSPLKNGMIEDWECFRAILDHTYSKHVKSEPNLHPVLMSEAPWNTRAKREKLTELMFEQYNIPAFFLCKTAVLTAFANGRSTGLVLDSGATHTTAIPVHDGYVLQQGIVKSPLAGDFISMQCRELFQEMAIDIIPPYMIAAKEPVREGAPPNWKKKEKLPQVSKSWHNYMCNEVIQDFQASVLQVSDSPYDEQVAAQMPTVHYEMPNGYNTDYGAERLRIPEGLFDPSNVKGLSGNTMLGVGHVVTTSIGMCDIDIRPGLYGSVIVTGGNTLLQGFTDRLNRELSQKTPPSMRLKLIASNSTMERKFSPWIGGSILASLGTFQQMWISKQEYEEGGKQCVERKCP
BAF53bΔHD (Q99MR0, form named): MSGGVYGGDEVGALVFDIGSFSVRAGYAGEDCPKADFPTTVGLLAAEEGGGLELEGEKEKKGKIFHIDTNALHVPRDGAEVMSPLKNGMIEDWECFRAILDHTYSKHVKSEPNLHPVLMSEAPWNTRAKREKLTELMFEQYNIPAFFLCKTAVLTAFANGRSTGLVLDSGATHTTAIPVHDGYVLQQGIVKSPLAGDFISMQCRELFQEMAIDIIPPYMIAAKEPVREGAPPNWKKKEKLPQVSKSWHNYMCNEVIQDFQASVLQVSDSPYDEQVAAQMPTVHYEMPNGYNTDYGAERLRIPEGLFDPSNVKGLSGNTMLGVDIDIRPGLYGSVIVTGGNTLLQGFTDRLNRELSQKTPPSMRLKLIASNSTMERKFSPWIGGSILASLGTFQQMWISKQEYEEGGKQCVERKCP

Target: Brg1 (mouse (endogenous in HT22)) (UniProt Q3TKT4)
Assay: co-IP; immunoprecipitation against Brg1 (1 ug antibody ab70558) from TPER lysates of HT22 cells harvested 48 h after transfection with empty vector, WT Baf53b or Baf53bΔHD; western blots probed for BAF53b and Brg1

Row | binding | Substance
1 | binds | BAF53b (wild type) (from UniProt Q99MR0 1-426)
2 | binds | BAF53bΔHD (from UniProt Q99MR0 1-426)
